Results as given in the supplement of paper PMC12889115.
The other results are listed elsewhere or left out. Values are raw readings; no control value is given beside them.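 Primary screen: polymyxin B was added at a level permeabilizing Salmonella outer membranes while sparing inner membranes. DMSO wells, both with and without polymyxin B, established maximum growth. Plate-to-plate variation meant each plate was ranked on its own, and the lowest-OD600 compounds were selected as hits.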

System: Salmonella enterica serovar Typhimurium SL1344
Assay: bacterial growth OD600 after 18 h with compound and polymyxin B; higher = more bacterial growth (less inhibition)
Details: 50 µM, Mueller-Hinton broth

SMILES | bacterial growth OD600 (polymyxin B 1 µg/mL) | bacterial growth OD600 (polymyxin B 0.75 µg/mL)
COc1cccc(-c2cc(CC3(O)CCN(Cc4cnc(OC)nc4)CC3)on2)c1 | 0.954 | –
CC(C)N(Cc1nccn1C)C(=O)c1cc(Cn2ccc3ccccc32)[nH]n1 | 0.916 | –
Cc1ccccc1N1C(=O)CN(C(=O)C2COc3ccccc3O2)CC1C (stereo unspecified) | – | 0.823
CC(C)Oc1ccc(C(=O)N2CCC(CO)(Cc3ccc(Cl)cc3)CC2)cc1 | 0.021 | –
O=C(Nc1ccc(-c2cscn2)cc1)C1CCCN1Cc1cccc(O)c1 (stereo unspecified) | – | 0.706
CCc1cc(C(=O)N2CCOc3ccc(CN4CCC(OCc5ccccc5)CC4)cc3C2)no1 | – | 0.78
O=C(Cc1c(F)ccc(F)c1F)NCC1CC(Cc2ccc(F)cc2)=NO1 (stereo unspecified) | – | 0.663
Cc1ccc(C(=O)N2CCC(n3nccc3NC(=O)c3ccc4c(c3)OCO4)CC2)s1 | 1.18 | –
Cc1cccc2c(NCc3ccccc3F)nc(CNC(=O)CCc3nc4cc(F)ccc4[nH]3)nc12 | – | 0.286
Cc1ccc(NC2CCCN(C(=O)c3ccc4c(c3)no[n+]4[O-])C2)cc1C (stereo unspecified) | 1.13 | –
Cc1nc(CN(C)CC2(O)CCCN(Cc3cccc(F)c3F)C2=O)cs1 (stereo unspecified) | 1.02 | –
C#CCN(Cc1ccco1)C(=O)c1cc(NC(=O)c2ccccc2OC)c2c(c1)nc(CC)n2C | – | 0.95
CCCCn1c(CN(C)CCOc2ccccc2)cnc1S(=O)(=O)CC | 1 | –
COc1ccc(C(=O)N2CCCC(Nc3ccc(F)cc3)C2)c(OC)c1OC (stereo unspecified) | 1.12 | –
CCn1ccnc1CNC(=O)c1cc(OC)ccc1OC1CCN(C(=O)C2CC2)CC1 | 0.862 | –
COC(=O)CCC(=O)N1CCCC(Nc2ccccc2)C1 (stereo unspecified) | 1.17 | –
O=C(c1ccsc1)N1CCc2[nH]nc(-c3ccccc3)c2C1 | – | 0.737
O=C(NCCn1cccn1)C1CCC(=O)N(CCc2cccc(F)c2)C1 (stereo unspecified) | 0.893 | –
CN(C)C(=O)CN1CCN(C(=O)CC(c2ccccc2)c2ccccc2F)CC1 (stereo unspecified) | – | 0.713
COc1ccc(CNC2CCCc3nc(N4CCC(CO)CC4)ncc32)cc1C (stereo unspecified) | – | 0.776
Cc1ccccc1C1(CC(=O)N2CCCC2c2ccc(F)cc2)CC(=O)N(Cc2cccnc2)C1=O (stereo unspecified) | – | 0.004

Random excerpt: 2 records from the list.
SMILES | bacterial growth OD600 (polymyxin B 1 µg/mL) | bacterial growth OD600 (polymyxin B 0.75 µg/mL)
COc1ccc(CNC2CCCc3nc(N4CCC(CO)CC4)ncc32)cc1C (stereo unspecified) | – | 0.776
Cc1ccc(C(=O)N2CCC(n3nccc3NC(=O)c3ccc4c(c3)OCO4)CC2)s1 | 1.18 | –
